# Data reported in PubChem BioAssay (Tox21).
# By UniProt entry, the sequences of proteins in these tests, tags left out. Where a name states a change or a piece, a line headed by the entry shows the natural chain unless it says otherwise.
# UniProt P28223, whole entry, looked up: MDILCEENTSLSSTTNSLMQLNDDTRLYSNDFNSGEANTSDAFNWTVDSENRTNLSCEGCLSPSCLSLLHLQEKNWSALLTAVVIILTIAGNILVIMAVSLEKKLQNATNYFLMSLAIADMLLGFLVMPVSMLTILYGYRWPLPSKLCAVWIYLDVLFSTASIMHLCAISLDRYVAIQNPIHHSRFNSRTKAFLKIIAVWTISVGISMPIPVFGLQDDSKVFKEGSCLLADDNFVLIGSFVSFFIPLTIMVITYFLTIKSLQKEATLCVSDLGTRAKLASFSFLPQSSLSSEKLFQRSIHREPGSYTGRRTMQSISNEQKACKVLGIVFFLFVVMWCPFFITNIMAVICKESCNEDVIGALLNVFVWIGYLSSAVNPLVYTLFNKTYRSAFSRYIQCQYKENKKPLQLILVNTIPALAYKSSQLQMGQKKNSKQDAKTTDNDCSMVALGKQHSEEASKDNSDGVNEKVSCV
# UniProt P11229: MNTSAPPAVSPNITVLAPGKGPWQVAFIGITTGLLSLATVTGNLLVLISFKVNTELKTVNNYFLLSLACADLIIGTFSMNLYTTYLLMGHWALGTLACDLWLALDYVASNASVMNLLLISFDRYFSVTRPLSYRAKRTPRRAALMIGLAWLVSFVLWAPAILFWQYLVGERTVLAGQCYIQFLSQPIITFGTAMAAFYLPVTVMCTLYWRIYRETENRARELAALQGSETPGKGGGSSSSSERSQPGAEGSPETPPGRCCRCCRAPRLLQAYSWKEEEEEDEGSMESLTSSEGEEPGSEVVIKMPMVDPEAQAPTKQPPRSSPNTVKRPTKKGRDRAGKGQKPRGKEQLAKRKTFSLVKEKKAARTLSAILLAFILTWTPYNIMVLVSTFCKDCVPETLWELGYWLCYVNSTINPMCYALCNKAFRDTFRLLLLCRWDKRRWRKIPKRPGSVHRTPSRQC
# UniProt P14416, whole entry, looked up: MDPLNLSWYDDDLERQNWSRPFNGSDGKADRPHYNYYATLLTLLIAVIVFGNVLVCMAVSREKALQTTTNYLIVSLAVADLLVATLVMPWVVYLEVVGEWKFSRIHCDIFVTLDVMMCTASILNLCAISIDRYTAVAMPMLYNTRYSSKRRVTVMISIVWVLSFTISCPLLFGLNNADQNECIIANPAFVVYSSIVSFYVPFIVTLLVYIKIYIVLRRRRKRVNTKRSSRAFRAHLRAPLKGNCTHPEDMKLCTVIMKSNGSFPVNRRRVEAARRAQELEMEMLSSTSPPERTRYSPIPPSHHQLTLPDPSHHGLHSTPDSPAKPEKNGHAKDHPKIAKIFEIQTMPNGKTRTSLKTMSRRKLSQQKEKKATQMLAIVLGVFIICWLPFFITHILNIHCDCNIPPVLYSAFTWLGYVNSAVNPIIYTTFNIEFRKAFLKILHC
# Where “and” joins values, the source holds several entries; their conditions need not be identical. Identical values can stand only once. The shares of active, inactive and inconclusive entries below differ from those in the screen. For some of these results: Where the call is inconclusive, the potency comes from a doubtful curve fit. Calls of active or inactive are those of the source. Unless noted, calls come from the whole dose curve.
# Key:
# [1] = p53 small molecule agonists, cell-based qHTS assay with human liver microsomes (AID 1963577); conditions: HCT-116 p53RE-bla with human liver microsomes, ratio, 16 h; activation: at 66 µM (top of the series) unless noted; note: potency is the fitted concentration of half-maximal effect;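 for activation: p53 response element beta-lactamase reporter cells with liver microsomes plus NADPH; % is set by controls: 0 for no effect and ±100 for the full control effect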
# Procedure, shortened: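 16 h, 37 C exposure of p53RE-bla cells to compounds with human liver microsomes and NADPH (0.5 mg/mL final each); detection via LiveBLAzer mixture, 2 h dark at room temperature.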
# [2] = p53 small molecule agonists, cell-based qHTS assay with rat liver microsomes (AID 1963578); conditions: HCT-116 p53RE-bla, beta-lactamase ratio, 16 h; activation: at 66 µM (top of the series) unless noted; note: potency is the fitted concentration of half-maximal effect
# Procedure, shortened: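 With rat liver microsomes and NADPH present (0.5 mg/mL final each), p53RE-bla cells are treated with compound for 16 h at 37 C. LiveBLAzer detection mixture is then applied for 2 h at room temperature in the dark.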
# [3] = p53 small molecule agonists, cell-based qHTS assay: qHTS cell viability counter screen (AID 1963581); note: nearly all actives have a fitted effect of over 45% in size; note: potency is the fitted concentration of half-maximal effect
# Procedure, shortened: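 p53RE-bla HCT-116 cells, compounds added 5 h after plating and incubated 16 h at 37 C. Cytotoxicity measured in the same wells as intracellular ATP by CellTiter-Glo luminescence after 30 min at room temperature.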
# [4] = target: 5-hydroxytryptamine receptor 2A (Homo sapiens) (UniProt P28223); assay: 5-hydroxytryptamine receptor 2A (HTR2A) small molecule agonists, cell-based qHTS assay (AID 1963587); conditions: HTR2A-CHO cells, calcium flux fluorescence, agonist mode; activation: at 76.8 µM (top of the series); note: nearly all actives have a fitted effect of over 30% in size; note: potency is the fitted concentration of half-maximal effect
# Procedure, shortened: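 HTR2A-CHO cells, plated 18 h at 37 C/5% CO2, dye-loaded 1 h at 37 C; compounds in DMSO added by pin tool (agonist mode). Intracellular calcium flux read as kinetic fluorescence on FDSS over 2 min at 1 s intervals.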
# [5] = cAMP Responsive Elements (CRE) small molecule agonists, cell-based qHTS assay (AID 1963590); conditions: CRE-bla HEK293T, beta-lactamase FRET ratio, 3 h; activation: at 92.4 µM (top of the series) unless noted; note: potency is the fitted concentration of half-maximal effect; for activation: % is set by controls: 0 for no effect and ±100 for the full control effect
# Procedure, shortened: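 CRE-bla HEK 293T cells, 2,000/well in DMEM with 10% dialyzed FBS and 25 mM HEPES, pre-incubated 18 h at 37 C, then exposed to compound 3 h at 37 C. Beta-lactamase reporter read with LiveBLAzer B/G FRET substrate after 2 h at room temperature.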
# [6] = target: Beta-2 adrenergic receptor (Homo sapiens) (UniProt P07550); assay: Adrenergic beta2 receptor (ADRB2) small molecule agonists, cell-based qHTS assay (AID 1963593); conditions: CHO-ADRB2 cells, cAMP HTRF, 30 min; note: potency is the fitted concentration of half-maximal effect;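 for activation: CHO cells stably overexpressing human ADRB2; % is set by controls: 0 for no effect and ±100 for the full control effect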
# Procedure, shortened: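 CHO cells stably over-expressing ADRB2 were plated overnight at 37C, then dosed with compounds plus a stimulation mix containing 100uM IBMX and 25uM Ro-20-1724 for 0.5hr at room temperature. cAMP was measured by HTRF competition, 1hr.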
# [7] = p53 small molecule agonists, cell-based qHTS assay (AID 1963582; active = well fitted activation curve with a large enough effect in the signal ratio in the repeat runs, not every such curve was filed as active; inconclusive = weak or mixed curves; the % refers to the signal ratio; note: potency is the fitted concentration of half-maximal effect); conditions: HCT-116 p53RE-bla reporter, beta-lactamase FRET ratio, 16 h; activation: at 66 µM (top of the series) unless noted
# Procedure, shortened: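 p53RE-bla reporter cells, compounds added in DMSO after 5 h plating, incubated 16 h at 37 C. Beta-lactamase read via 2 h room-temperature LiveBLAzer B/G FRET substrate, fluorescence intensity.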
# [8] = target: Muscarinic acetylcholine receptor M1 (Homo sapiens) (UniProt P11229); assay: Cholinergic receptor muscarinic 1 (CHRM1) small molecule agonists, cell-based qHTS assay (AID 1963589); conditions: CHRM1-CHO cells, agonist mode, calcium flux fluorescence; activation: at 76.8 µM (top of the series); note: % is set by controls: 0 for no effect and ±100 for the full control effect; nearly all actives have a fitted effect of over 35% in size
# Procedure, shortened: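 CHO cells stably expressing human CHRM1 were loaded with calcium dye for 1 h at 37 C, then compound was added in agonist mode. Intracellular calcium fluorescence was followed kinetically at 1 s intervals. Fifteen concentrations were tested in three independent runs.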
# [9] = target: D(2) dopamine receptor (Homo sapiens) (UniProt P14416); assay: Dopamine D2 receptor (DRD2) small molecule agonists, cell-based qHTS assay (AID 1963594); conditions: HEK293-DRD2 cAMP HTRF, agonist mode, 30 min; activation: at 92.4 µM (top of the series) unless noted; note: nearly all actives have a fitted effect of over 35% in size; note: potency is the fitted concentration of half-maximal effect
# Procedure, shortened: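 HEK293 cells stably expressing DRD2 were cultured 24 h at 37 C, then given Ro20-1724 (0.1 mM final) and compounds for 10 min at room temperature. NKH477 (200nM) was then added for 30 min. cAMP was read by HTRF.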
# [10] = target: 5-hydroxytryptamine receptor 2A (Homo sapiens) (UniProt P28223); assay: 5-hydroxytryptamine receptor 2A (HTR2A) small molecule antagonists, cell-based qHTS assay (AID 1963586); note: potency is the fitted concentration of half-maximal effect; nearly all actives have a fitted effect of over 45% in size
# Procedure, shortened: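 Antagonist-mode intracellular calcium assay: DOI (4 nM) added after 5 min compound pre-incubation at room temperature to dye-loaded HTR2A-CHO cells. Fluorescence followed for 3 min, sampled every second.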
# [11] = cAMP Responsive Elements (CRE) small molecule antagonists, cell-based qHTS assay (AID 1963591; active = well fitted inhibition curve with a large enough effect in the signal ratio in the repeat runs, not every such curve was filed as active; inconclusive = weak or mixed curves, or effect the other way; the % refers to the signal ratio; note: potency is the fitted concentration of half-maximal effect); conditions: CRE-bla HEK293T, beta-lactamase FRET ratio; activity change, negative = inhibition: at 92.4 µM (top of the series) unless noted
# Procedure, shortened: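 CRE-bla HEK293T cells plated 18 h, then given compound plus NKH477 at 0.25 uM final for 3 h at 37C. Beta-lactamase reporter read with LiveBLAzer B/G FRET substrate after 2 h at room temperature.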
# [12] = target: D(2) dopamine receptor (Homo sapiens) (UniProt P14416); assay: Dopamine D2 receptor (DRD2) small molecule antagonists, cell-based qHTS assay (AID 1963595; active = well fitted inhibition curve with a large enough effect in the signal ratio in the repeat runs, with a control signal flat; inconclusive = weak or mixed curves, or effect the other way; the % refers to the signal ratio; note: % is set by controls: 0 for no effect and ±100 for the full control effect); conditions: HEK293-DRD2 cAMP HTRF antagonist mode; activity change, negative = inhibition: at 92.4 µM (top of the series) unless noted
# Procedure, shortened: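 In this cell-based antagonist screen, compounds act for 10 min at room temperature before a 30 min challenge with 12 nM quinpirole and 200 nM NKH477. cAMP is quantified by HTRF competition in DRD2-HEK293 cells containing 0.1 mM Ro20-1724.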
# [13] = target: Muscarinic acetylcholine receptor M1 (Homo sapiens) (UniProt P11229); assay: Cholinergic receptor muscarinic 1 (CHRM1) small molecule antagonists, cell-based qHTS assay (AID 1963588); note: potency is the fitted concentration of half-maximal effect; nearly all actives have a fitted effect of over 40% in size
# Procedure, shortened: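 CHRM1-CHO calcium-flux assay, antagonist mode. Cells were seeded 18 h, dye-loaded 1 h at 37 C and given compound for 5 min at RT, then acetylcholine was added at 50nM. FDSS fluorescence was read 3 min; 15 concentrations, three runs.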
# [14] = p53 small molecule agonists, cell-based qHTS assay with human liver microsomes: qHTS cell viability counter screen (AID 1963579); note: potency is the fitted concentration of half-maximal effect; nearly all actives have a fitted effect of over 45% in size
# Procedure, shortened: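 In this multiplexed counter screen, the reporter plates were subsequently treated with CellTiter-Glo so that cell viability, reflected by luminescence, could be recorded for p53RE-bla cells dosed 16 h with compounds under microsomal activation (HLM and NADPH).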
# [15] = target: Beta-2 adrenergic receptor (Homo sapiens) (UniProt P07550); assay: Adrenergic beta2 receptor (ADRB2) small molecule antagonists, cell-based qHTS assay (AID 1963592); conditions: CHO-ADRB2 cells, isoproterenol-stimulated cAMP HTRF ratio, 0.5 h; activity change, negative = inhibition: at 92.4 µM (top of the series) unless noted; note: % is set by controls: 0 for no effect and ±100 for the full control effect; nearly all actives have a fitted effect of over 50% in size
# Procedure, shortened: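 Cells (CHO, stable ADRB2 overexpression) incubated 18-20hr at 37C; compounds added from DMSO; agonist mix (1nM isoproterenol, 100uM IBMX, 25uM Ro-20-1724) added; 0.5hr RT; d2-cAMP and anti-cAMP-cryptate added; 1hr RT; 665/615 nm read.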
# [16] = p53 small molecule agonists, cell-based qHTS assay with rat liver microsomes: qHTS cell viability counter screen (AID 1963580); note: potency is the fitted concentration of half-maximal effect; nearly all actives have a fitted effect of over 45% in size
# Procedure, shortened: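 In HCT-116 cells carrying a p53 response element-bla reporter, compounds were metabolically activated in situ by rat liver microsomes with NADPH over 16 h. Cell ATP content then served as the cytotoxicity measure.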
# [17] = activation: at 92.4 µM (top of the series) unless noted
smiles,measurement,setting,value
ClCC(Cl)CCl,Potency,[1],inactive
same,Potency,[2],"inconclusive: 36.7 µM [fluorescent, partial curve]"
same,Potency,[3],inactive
same,Potency,[4],"inconclusive: 12.4 µM [activator, single point]"
same,Potency,[5],inactive
same,activation,[6]; [17],inconclusive: -6.3% and inconclusive: -60.9%
CCOP(=O)(OCC)Oc1cc(C)nc(C(C)C)n1,activation,[1],inconclusive: 23.3%
same,Potency,[2],"inconclusive: 0.65 µM [activator, single point]"
same,Potency,[4],inactive
same,Potency,[6]; [17],inactive
CNC(=O)Oc1ccccc1OC(C)C,Potency,[1],"inconclusive: 9.14 µM [activator, full curve]"
same,Potency,[2],"inconclusive: 18.2 µM [fluorescent, partial curve] and inconclusive: 18.2 µM [fluorescent, single point]"
same,Potency,[7],"inconclusive: 51.3 µM [falling, partial curve, poor fit]"
same,Potency,[8],inactive
same,activation,[6]; [17],inconclusive: 7.08%
same,activation,[6]; at 92.4 µM (top of the series),inactive: 7.93%
same,Potency,[9],"inconclusive: 68.5 µM [rising, single point]"
CCOP(=S)(OCC)Oc1nc(Cl)n(C(C)C)n1,Potency,[1],"inconclusive: 0.725 µM [fluorescent, partial curve]"
same,Potency,[2],"inconclusive: 0.0646 µM [fluorescent, full curve]"
same,Potency,[6]; [17],inactive
CCCCC(C#N)(Cn1cncn1)c1ccc(Cl)cc1 (stereo not drawn),Potency,[1],inconclusive: 45.6 µM [fluorescent]
same,Potency,[2],inconclusive: 45.6 µM [fluorescent]
same,Potency,[7],inactive
same,Potency,[10],"inconclusive: 0.133 µM [inhibitor, full curve, poor fit]"
same,Potency,[4],"inconclusive: 54.9 µM [activator, partial curve, poor fit]"
same,Potency,[11],"inconclusive: 68.6 µM [activator, partial curve, poor fit]"
same,Potency,[6]; [17],"inconclusive: 19.3 µM [inhibitor, partial curve, poor fit]"
same,activation,[9],inconclusive: 8.52%
same,Potency,[12],inactive
Cc1ccc(OP(=O)(Oc2ccccc2)Oc2ccccc2)cc1,Potency,[1],"inconclusive: 32.9 µM [fluorescent, partial curve, poor fit]"
same,Potency,[2],inconclusive: 5.84 µM [fluorescent]
same,Potency,[7],inconclusive: 20.7 µM
same,activation,[5],inconclusive: 18.8%
same,Potency,[6]; [17],"inconclusive: 8.76 µM [inhibitor, single point]"
CCOP(=S)(OCC)Oc1ccc([N+](=O)[O-])cc1,Potency,[1],"inconclusive: 1.47 µM [fluorescent, full curve] and inconclusive: 3.97 µM [fluorescent, full curve, poor fit]"
same,Potency,[2],"inconclusive: 147 nM [fluorescent, full curve] and inconclusive: 629 nM [fluorescent, full curve]"
same,Potency,[13],active: 9.54 µM and active: 18.3 µM
NC(=O)CS(=O)C(c1ccccc1)c1ccccc1 (stereo not drawn),Potency,[1],"inconclusive: 22.3 µM [rising, single point]"
same,Potency,[14],"inconclusive: 22.3 µM [cytotoxic, single point]"
same,Potency,[11],inactive
same,activation,[6]; [17],inconclusive: -40.7% [at 42.5 µM]
same,Potency,[12],inactive
CC[C@H](C)[C@H]1O[C@]2(C=C[C@@H]1C)C[C@@H]1C[C@@H](C/C=C(\C)[C@@H](O[C@H]3C[C@H](OC)[C@@H](O[C@H]4C[C@H](OC)[C@@H](O)[C@H](C)O4)[C@H](C)O3)[C@@H](C)/C=C/C=C3\CO[C@@H]4[C@H](O)C(C)=C[C@@H](C(=O)O1)[C@]34O)O2,Potency,[1],"inconclusive: 7.62 µM [rising, full curve]"
same,Potency,[3],active: 19.1 µM
same,Potency,[7],"inconclusive: 4.28 µM [fluorescent, partial curve]"
same,Potency,[5],"inconclusive: 36.1 µM [fluorescent, partial curve]"
same,Potency,[11],"inconclusive: 36.1 µM [fluorescent, partial curve]"
same,"activity change, negative = inhibition",[15],inconclusive: 2.65% [at 42.5 µM]
same,Potency,[6]; [17],inactive
CS(=O)(=O)c1ccc(C(=O)C2C(=O)CCCC2=O)c([N+](=O)[O-])c1,Potency,[1],"inconclusive: 23.3 µM [rising, partial curve, poor fit]"
same,Potency,[16],"inconclusive: 9.29 µM [cytotoxic, single point]"
same,Potency,[7],inconclusive: 24.7 µM
same,Potency,[13],inconclusive: 540 nM [inhibitor]
same,Potency,[5],inconclusive: 29.4 µM
same,Potency,[11],inconclusive: 39 µM [fluorescent]
same,Potency,[15],inactive
same,activation,[6]; [17],inconclusive: -29.6%
same,activation,[9],inconclusive: 22.9%
